Values from PubChem BioAssay AID1159578 (Peter MacCallum Cancer Centre, 2015).
Test: 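Knock-downs that alter how fast lymphatic endothelial cells migrate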 (primary screen). Cell system: human lymphatic endothelial cells. Reagent: siRNA pool against human genes, 40 nM. Time to read-out: 48 h after transfection. Measurement: 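High-content imaging of dye-stained cells in a scratch assay measures filled wound area and nuclei per well; duplicate means given as ratio to mock and robust z-score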. Reading the numbers: migration robust z-score: higher = faster migration into the scratch; nuclei per well: higher = more cells in the well. Active means: 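Migration changed when robust z exceeds 2 or falls below -2 and mean nuclei number is at least 3300; otherwise not called changed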. Meaning of the calls: active = migration changed; inactive = no migration change, or too few cells.
In all, the deposit lists about 18,000 reagents; shown is a random part of them. Over the whole deposit, about 1,030 (5.7%) got an active call. 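Inactive calls also include pools with fewer than 3300 nuclei, whose migration was not assessed.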 Raw values are not corrected between plates. Entries without a mark were called inactive. Not all columns of the deposit are shown.

IKZF1
- migration robust z-score: 0.1
- nuclei per well, duplicate mean: 7060

TELO2
- migration robust z-score: 1.1
- nuclei per well, duplicate mean: 5778

EIF4A2
- migration robust z-score: -0.88
- nuclei per well, duplicate mean: 6555

C8orf33
- migration robust z-score: 0.84
- nuclei per well, duplicate mean: 5332

TRIM35
- migration robust z-score: -1.32
- nuclei per well, duplicate mean: 4820

ANKRD11
- migration robust z-score: -0.08
- nuclei per well, duplicate mean: 6848

AKAP3
- migration robust z-score: 0.68
- nuclei per well, duplicate mean: 5662

SLC39A14
- migration robust z-score: 1.1
- nuclei per well, duplicate mean: 5567

GOLGA8G
- migration robust z-score: 0.56
- nuclei per well, duplicate mean: 7034

CTXN3
- migration robust z-score: 1.69
- nuclei per well, duplicate mean: 7002

PTPN1
- migration robust z-score: -0.13
- nuclei per well, duplicate mean: 6110

MGA
- migration robust z-score: 0.46
- nuclei per well, duplicate mean: 6262

DHX29
- migration robust z-score: -0.42
- nuclei per well, duplicate mean: 5081

TLN2
- migration robust z-score: -0.07
- nuclei per well, duplicate mean: 6696

GOT1
- migration robust z-score: 0.42
- nuclei per well, duplicate mean: 6010

GPX6
- migration robust z-score: 0.03
- nuclei per well, duplicate mean: 5806

MAPK7
- migration robust z-score: -0.94
- nuclei per well, duplicate mean: 3970

ANKRD6
- migration robust z-score: 0.28
- nuclei per well, duplicate mean: 6118

CLTRN
- migration robust z-score: -1.48
- nuclei per well, duplicate mean: 4528

LAMP2
- migration robust z-score: 0.26
- nuclei per well, duplicate mean: 6768

RNASE3
- migration robust z-score: 0.62
- nuclei per well, duplicate mean: 5146

BAG2
- migration robust z-score: 1.56
- nuclei per well, duplicate mean: 4257

NUP35
- migration robust z-score: -0.26
- nuclei per well, duplicate mean: 5384

GRN
- migration robust z-score: 1.42
- nuclei per well, duplicate mean: 6054

STARD3NL
- migration robust z-score: 1.6
- nuclei per well, duplicate mean: 7016

IFIT1
- migration robust z-score: 0.2
- nuclei per well, duplicate mean: 5618

CAPNS2
- migration robust z-score: -0.05
- nuclei per well, duplicate mean: 4614

Reprinted from above for reference:
BAG2
- migration robust z-score: 1.56
- nuclei per well, duplicate mean: 4257

NUP35
- migration robust z-score: -0.26
- nuclei per well, duplicate mean: 5384
